For five molecules, binding results are on record in article PMC7603511.

Amino acid sequences for entries named in this document (tags omitted). A change or cut given only in a name is not applied to a line headed by its entry. Residues count along the entry.
UniProt P98170: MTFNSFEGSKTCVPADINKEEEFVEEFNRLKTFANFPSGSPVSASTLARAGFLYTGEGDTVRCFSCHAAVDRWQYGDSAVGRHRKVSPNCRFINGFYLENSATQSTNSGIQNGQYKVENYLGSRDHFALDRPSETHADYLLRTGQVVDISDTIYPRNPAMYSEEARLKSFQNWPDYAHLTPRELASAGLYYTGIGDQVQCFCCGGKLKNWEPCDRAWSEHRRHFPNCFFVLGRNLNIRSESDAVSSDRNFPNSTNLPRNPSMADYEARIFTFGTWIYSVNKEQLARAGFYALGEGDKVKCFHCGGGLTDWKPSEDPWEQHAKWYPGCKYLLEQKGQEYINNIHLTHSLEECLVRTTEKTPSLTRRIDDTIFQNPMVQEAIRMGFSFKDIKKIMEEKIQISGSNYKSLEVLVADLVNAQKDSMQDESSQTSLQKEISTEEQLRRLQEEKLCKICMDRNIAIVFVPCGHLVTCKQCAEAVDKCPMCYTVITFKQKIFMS
UniProt Q3U9F6: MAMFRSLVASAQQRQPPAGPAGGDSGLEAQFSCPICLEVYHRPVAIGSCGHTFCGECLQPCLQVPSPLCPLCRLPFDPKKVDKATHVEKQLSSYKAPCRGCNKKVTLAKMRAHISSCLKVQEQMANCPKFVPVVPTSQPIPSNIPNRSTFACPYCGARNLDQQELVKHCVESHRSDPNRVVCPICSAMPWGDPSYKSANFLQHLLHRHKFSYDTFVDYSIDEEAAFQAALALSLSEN
hRNF166 ΔC (1-199) (Q96A37, residues 1-199): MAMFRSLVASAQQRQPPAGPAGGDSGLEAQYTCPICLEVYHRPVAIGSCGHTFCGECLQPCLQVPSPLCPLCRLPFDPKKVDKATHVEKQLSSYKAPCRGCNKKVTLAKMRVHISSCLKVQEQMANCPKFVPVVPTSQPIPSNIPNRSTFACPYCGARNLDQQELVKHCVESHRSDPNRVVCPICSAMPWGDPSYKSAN
hRNF166 ΔN (110-237) (Q96A37, residues 110-237): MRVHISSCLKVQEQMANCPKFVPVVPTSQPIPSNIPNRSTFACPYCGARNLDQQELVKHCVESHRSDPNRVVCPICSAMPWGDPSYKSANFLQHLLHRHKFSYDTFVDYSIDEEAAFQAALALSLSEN

No constants are given. Whether binding was seen depends on the method and setting. In cells and extracts the contact can be indirect. Some entries that bind do so weakly or less than the wild type. For some assays here: Sequences can lack the tags named with a protein.

The target in experiment [1] is Flag-XIAP (human) (UniProt P98170). Put plainly: co-IP; domain mapping by co-immunoprecipitation (Supplementary Fig. 6A, B); cells and antibodies not told in the text shown.
The target in experiment [2] is T1, Flag-XAF-1 (human) (UniProt Q6GPH4).
T1 sequence: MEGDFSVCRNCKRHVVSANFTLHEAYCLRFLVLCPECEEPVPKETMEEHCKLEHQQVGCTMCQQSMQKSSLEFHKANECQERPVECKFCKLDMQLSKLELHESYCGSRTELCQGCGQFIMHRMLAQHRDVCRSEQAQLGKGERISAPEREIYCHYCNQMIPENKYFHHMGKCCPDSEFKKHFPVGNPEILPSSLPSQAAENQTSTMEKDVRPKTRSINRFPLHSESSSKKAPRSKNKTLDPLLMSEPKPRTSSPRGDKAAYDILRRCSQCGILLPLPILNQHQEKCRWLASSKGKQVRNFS
Put plainly: co-IP; HEK293 cells transfected with tagged constructs alone or in combination (for XIAP and RNF166 also with co-expressed V5-XAF-1); lysed in RIPA buffer; immunoprecipitation with anti-Flag M2 affinity gel or anti-V5 antibody overnight at 4 °C, immunoblotting. For orientation: In western blotting, separated proteins are transferred to a membrane and probed.

For experiment [3], the target named is Flag-XIAP (human) (UniProt P98170). The experiment is described as above.
Experiment [4] shares this target. Put plainly: co-IP; MN9D cells transfected with V5-RNF166 and Flag-XIAP for 48 h, with or without 100 µM 6-OHDA for 9 h; immunoprecipitation with anti-Flag M2 affinity gel, immunoblot with anti-V5 and anti-Flag.
Experiment [5] addresses GST-RNF166 (mouse) (UniProt Q3U9F6). Put plainly: pull-down; 30 µg purified GST-RNF166 on glutathione beads, 2 mg lysate of HEK293 cells overexpressing Flag-XAF-1, overnight at 4 °C; 25 mM Tris-HCl pH 7.5, 1 mM DTT, 30 mM MgCl2, 40 mM NaCl, 0.5% NP40; anti-Flag immunoblot; only the target purified.

Regarding “hRNF166 ΔN (110-237) (from UniProt Q96A37-1 110-237) (domain or fragment)”, in experiment [1], the binding entry is recorded as “binds”.

Regarding V5-RNF166 (from UniProt Q3U9F6 1-237), the binding entry in experiment [2], in experiment [3], in experiment [1] and in experiment [4] was “binds” each time.

As to “hRNF166 ΔC (1-199) (from UniProt Q96A37-1 1-199) (domain or fragment)”, the binding result in experiment [1] was “binds”. As for “human RNF166 in pcDNA 3.1-V5 His (hRNF166, wild type) (from UniProt Q96A37-1 1-237)”, the binding result in experiment [1] was “binds”.

B1: Flag-XAF-1 (protein, UniProt Q6GPH4 1-301)
chain: MEGDFSVCRNCKRHVVSANFTLHEAYCLRFLVLCPECEEPVPKETMEEHCKLEHQQVGCTMCQQSMQKSSLEFHKANECQERPVECKFCKLDMQLSKLELHESYCGSRTELCQGCGQFIMHRMLAQHRDVCRSEQAQLGKGERISAPEREIYCHYCNQMIPENKYFHHMGKCCPDSEFKKHFPVGNPEILPSSLPSQAAENQTSTMEKDVRPKTRSINRFPLHSESSSKKAPRSKNKTLDPLLMSEPKPRTSSPRGDKAAYDILRRCSQCGILLPLPILNQHQEKCRWLASSKGKQVRNFS
On to B1, for which, in experiment [5], the binding entry is recorded as “binds”.
